Among all 53,000 sequences or so, about 3,700 (7%) were called active.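 Rule for the calls: active = gene knockdowns whose robust z-score for IL-1 alpha signal is at least 2 or at most -2, so actives lie on both sides; inactive = the rest.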 The list shows a part of the results.

The nature of the experiment: Components of the Cytosolic LPS Sensing Pathway: Gene Identification via Genome-wide siRNA Screen.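 Note: robust z of the log signal after scaling to non-targeting control siRNA wells of the plate.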 The conditions noted are these: RAW264.7 macrophages, IL-1a HTRF, actives lie on both sides, screened at 100 nM (by protocol), cells primed 5 h with Pam3CSK4 first. Summed up: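 Knockdown: 100 nM siRNA, 48h, RAW264.7. Stimulation: Pam3CSK4 5 h, then LipidA via TransIT-TKO 24 h. Output: supernatant IL-1a HTRF, negative-control-normalized, log robust z-score; viability by CellTiter-Glo.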
On the technique in general: In TR-FRET formats the signal depends on donor and acceptor labels being close together.
Take CCUAUAUUCCAUGGAUUCUTT against Zwilch: the z-score is inactive: -0.292.

With GGUUGUAUUGAGGUCAAGGTT against Olfr1462, the z-score was inactive: -0.933. As to GCCGUAUGUUGAUAUCUACTT against Ms4a1, the z-score is inactive: 0.921.

On to GCAGACAAUUGGUUUGAUUTT against Armcx6, for which the z-score is inactive: -0.819. As for GCAAACAGCUAGUAAAAUGTT against Cyth3, the z-score is inactive: -0.83. Regarding GGCAUUUAAAUCUGUGUGUTT against Slc39a6, the z-score is inactive: -0.471. In the case of GCUUCUCAGAAGAUGUACUTT against Rgs16, the z-score was inactive: -1.06. Consider GCUUACCUGAGAUGUGCUCTT against Dbx1, for which the z-score was inactive: -1.3. Next, “GGGUAAAAUUAUUCUCAGGTT against 1600012H06Rik”: inactive: 0.172. With CCACCACAAGUUUCCAUGUTT against Rnf17, the z-score was inactive: -0.532.

Regarding GGAAUGUGAACCUUAUAGATT against Tmem30a, the z-score was inactive: -0.553.

As to GGUCAUUCCCAUUAAACAGTT against Emc8, the z-score was active: -2.57. With GGCAACCAAAGUUAGUGUGTT against Ifi204 the figure was inactive: -0.147. Regarding GGGAACCUCUGAAAAGAGGTT against Teddm1b, the z-score is inactive: 0.409. Next, GCCUCGACCAGUUUAAUCATT against Vwa5a: inactive: -0.119. Next, GCCAUCACGAAAAUUCUAGTT against Tufm: inactive: -0.665; GGUGGUUCACAAAUACUGUTT against Agtpbp1: inactive: 0.264; CCUGGCAGAUGGAUUCGUATT against Kif6: inactive: 0.223. With GGUUUCUGCCAUCCAUCAGTT against Zfa-ps the figure was inactive: -0.705; with GCUCGUACAUCUAUGGCUATT against Psmb6, inactive: -0.633; with GGAUGAUACUUCAUUACACTT against Ankrd12, inactive: -0.727.

“GCUCGAAGAAAGGCCCUGATT against B430306N03Rik”: the z-score is inactive: -0.509. Next, GGGAGACUCUCAUUUAAAUTT against Casp3: inactive: 0.406; GGAGUUGAAAGGAGUGAGCTT against Cadm4: inactive: -1.47. With GGAAUGGAACACAAAUAGCTT against Kdelr2 the figure was inactive: 0.191. With GGUAUUAUGACCAGAUUAUTT against Plxnb3 the figure was inactive: 0.736.

For the sequence GGGAAGAUCAGCUUUCAUATT against Pak1ip1, the z-score is inactive: -0.896. With GGAGAACAGUUUCAAGAUGTT against Rnf152 the figure was inactive: -0.487; with CCACGUCCUAAGAGACAUUTT against Eps8l3, inactive: 0.262. Next, GGAAGAACAAAAAUGCAAGTT against Irf8: inactive: 0.0325.

As for GGCGGUGAAGUCUAAGGCATT against H1f5, the z-score is inactive: 1.54.

Consider GGACAAAACCAUCUCCUUCTT against Olfr17, for which the z-score is inactive: 0.324. With GGACCUGACCUUGCUGUUATT against Fancg the figure was inactive: 1.57; with GCUCUAACGUAUGAUGCCATT against Nde1, inactive: 0.206; with GGAAUAUAUCUGCUUUAUCTT against Gphb5, inactive: 0.0714. Next, GGAGCAGGUAAACAUGUCUTT against Fpr-rs7: inactive: -0.218. With GCGAUGAGUAUAUCAAGUUTT against Hdac2 the figure was inactive: 1.61; with CCAGCUUCCUCGUAAGUGATT against Hsf4, inactive: -1.71; with GGAGAUGUAUGCCGCUUAUTT against Lcat, inactive: 1.23.

Regarding GGAGAAAGGUGGUACCAAGTT against Deaf1, the z-score is inactive: 1.12.

In the case of GGCACCCGAGUAGGUCAAATT against Carhsp1, the z-score was active: 6.02. As to GCUUGAAGUCUCUUGCUGGTT against Nhlrc2, the z-score is active: 3.53.

Regarding GCUGACAAAACUGCUAAACTT against Ctnnb1, the z-score was inactive: 0.948. With GGAUUAGGAUCAGCAGGAUTT against Accs the figure was inactive: 1.01.

In the case of GGAUCUAAAGGUGAGUCAATT against Dcaf12l1, the z-score was inactive: -0.388. Turning to GGAUCUUACAGUUUCGUCUTT against Oas3, the z-score is inactive: 0.146. As to GGAACAGAGAGUAAAAUCUTT against Map3k7cl, the z-score was inactive: 0.339. For the sequence GGACAUGGUCUCCAAACUATT against Pgd, the z-score was inactive: -1.78. Next, GGCAUGGUGAAUGAAAUUGTT against Calml3: inactive: -0.578; CCAACCAAAGAUGAAUUGUTT against Usp19: inactive: -0.445.

As to UAAUAAAAGGAGGUGGUUCTT against Ube2dnl1, the z-score is inactive: 0.491. As for CCCAGCUGGCAUGAUCUUUTT against Pbld1, the z-score is inactive: 0.979. GGACUUGUCAGCACUGAGCTT against Fcrla: the z-score was inactive: -0.552.

For the sequence GGAAGAGUGGGAGAAAAUATT against H2-M9, the z-score was inactive: -1.39. Next, GAGAGAGCAGAGCUUGAGATT against Angptl6: inactive: 1.65; GGGCAACAUUUUUCAGUGCTT against Prox1: inactive: 0.722.

For the sequence GGUUGAAGGCCAAUUCAAATT against Lrrc10, the z-score is active: 2.94. Regarding CCUACUACCUCUGUCAACATT against Nme4, the z-score was inactive: -1.65. GAUUGUCACCACCUUAAGATT against Chchd5: the z-score was inactive: -0.964. Next, “GCUGAUAGGCACGAGUAUCTT against 4930430F08Rik”: inactive: 1.8; CCAUGACCAGGAUGGAUCATT against Cchcr1: inactive: -1.17; GGGAACCUUGCUAUUUGGATT against Gucy2c: inactive: -0.0205. Next, GGAGGAACAAUCAUCUAUATT against Ripk2: inactive: 1.1. As for GGAUUGACCUCCAAGGACATT against Osgep, the z-score was inactive: -0.731.

For the sequence CCCAAACUAUGUUCUUGAATT against Tll2, the z-score is inactive: 0.259. As to GGGUUUGGAUGCAGCAUCUTT against Gata1, the z-score was inactive: -1.68. For GGACCAGGAUCAGUUGAUCTT against Olfr1406, the z-score was inactive: -1.55. As for GGUAUUAAACACCAGCUCUTT against Nsfl1c, the z-score is inactive: 0.0261. With GCAAGUGAGACCUACUGUATT against Syne2, the z-score was inactive: -0.791.

With GGGAUGGUGGAGAGAAAGATT against Hsdl1, the z-score was inactive: 0.496.

Consider GGGCACACACUUCAAUUUUTT against Sap18, for which the z-score was inactive: 0.301. Turning to CCAAUUAGUCACUCUUAGATT against Errfi1, the z-score is inactive: 0.528. Next, CCAUGAUCGCUAGUGAAGCTT against Mrpl24: inactive: -0.743. As for GGGUAUCAACCACUUUUUUTT against Serping1, the z-score was inactive: 2. Next, GCUCUCAGAUGACAUCACUTT against Supt5: active: -2.43; CCAAGGUAUGAAGAUAUUUTT against Rfpl4: inactive: 0.575; GGCUUCUUAUUGAUGUUGGTT against Asb13: inactive: -0.166.

With GGCUGCUACUUCAGACAGCTT against Pou6f2, the z-score was inactive: -0.163.

In the case of GGCCAAAAUUAAAAAGGCCTT against Chmp1b, the z-score is inactive: 1.12. Regarding GGACAAAGAAUCCAAAAUATT against Etv6, the z-score was active: 2.25. Next, CCACGCAACUAUAAGCUGCTT against B3gat1: inactive: -1.26; CCUAAUGUUUAGAUCCAUATT against Gcm2: inactive: 0.11. On to GGUACUGUCCAAGAAGCCGTT against Ankmy2, for which the z-score was inactive: -0.966. On to GCCUCAUUAGUUAAUAUUCTT against Ppp1r8, for which the z-score was inactive: -0.301. With GGAUAAACGGACAGGCCCATT against Socs2 the figure was inactive: 0.282; with GGUCCCAACGAAGAAACCATT against Cd55, inactive: 0.475; with GGGACAACCCAUCAACAAUTT against Catsper1, inactive: -0.614. In the case of GGACAGUGUGUUUUCUUGUTT against Ankle1, the z-score was inactive: 0.551. For the sequence GCCUUUCGAUUCUAAUUGCTT against Fkbp6, the z-score is inactive: 0.577. With GGCUAUGUUAUUGACAUGUTT against Ammecr1l the figure was inactive: 0.208; with GGCAGAACACUGAAAGGGATT against Mrps11, inactive: 0.816. Next, GCCAGGGACUUGCUAUUGATT against Txlna: inactive: -0.24. As for GGAUCAUGGUCCUGUCUUUTT against Rlbp1, the z-score was inactive: -0.258.

As to CCAAUGUGCUCAUGCUCUATT against Nodal, the z-score was inactive: 1.06. Next, CGAGAACCCUGACAUAAUCTT against Ddx54: inactive: -0.576; GCCACAAAUCGAAUCUUACTT against Zfp146: inactive: 1.58. With GGGCAAUCUGAGCAAUUGUTT against Wnt7b the figure was inactive: -0.213; with GGUCUUUCCGGCAGUUCUUTT against Rxrg, active: -2.27.

For the sequence GGGAAGGAUUUUUGAUGAUTT against Arfgap1, the z-score is inactive: 1.33. With GGAAAUGUUGAAUCUUGCUTT against Mfsd4a the figure was inactive: 0.0725; with GGAAUCUUCUCAGCUUAAUTT against Slc17a2, inactive: -0.363.

With CCUACAACUCAGCGCAUGATT against Ptgs1, the z-score was inactive: -1.28. Next, GGAACUGAUGAAUAUUUCATT against Chrnb1: inactive: 0.78. On to GCAAAUGUAAUGGUGAAAGTT against Cldn1, for which the z-score was inactive: -0.328. Regarding CGGCUGACUACAUUUCAAGTT against Camk4, the z-score was inactive: -1.12. Next, GGAUCAGUACCUGUGAUGGTT against Adamdec1: active: -2.07; GGUCUGUGACGAGAAGCUATT against Rab4a: inactive: -1.43.

These data come from PubChem BioAssay AID1508600 (Functional Genomics Laboratory (NCATS/FGL), 2020).
